Among the data in US8815565B2, “Method for culturing mycoplasma contamination-free cells and method for removing mycoplasma contamination of cells” (Cellsafe Co., Ltd., priority 2010, dated 2014) are mycoplasma contamination values, retold here.

This assay has as its system HepG2 cell line contaminated with mycoplasma. The experiment in a line: Co-treatment with amphidinol 3 (AM3) and cyclic lipopeptide/antibiotic, PCR with mycoplasma diagnosis kit. The format is cell-based. On the procedure: The cell lines NIH3T3, HepG2, and Raw 264.7, which were confirmed to be contaminated with mycoplasma, were each inoculated at a concentration of 1×10^6 cells on a T-75 culture flask (NUNC, Cat. No. 156367). DMEM (GIBCO BRL, Cat. No. 12800-058) containing 10% or less of serum (GIBCO BRL, Cat. […] After culturing for 3 days, the obtained cells were treated with Trypsin-EDTA to obtain a cell solution. The resulting cells (1×10^6 cells) which was treated with amphidinol 3 (AM3) were inoculated. DMEM (GIBCO BRL, Cat. No. 12800-058) containing 10% or less of serum (GIBCO BRL, Cat. […] After culturing for 3 days, the cells were harvested. PCR was performed thereon with a mycoplasma diagnosis kit (Promokine, Germany; Cellsafe Co., Ltd., Korea) according to the enclosed protocol. The resulting PCR products were electrophoresed on a 1% agarose gel to measure the mycoplasma contamination.
Mycoplasma contamination was measured in the same manner as in (2) except that HepG2 was used as a cell line contaminated with mycoplasma; and instead of the treatment with amphidinol 3 (AM3), 5 μg/ml and 10 μg/ml of amphidinol 3 (AM3) was used together with surfactin (10 μM or 20 μM), ciprofloxacin (1 μg/ml or 5 μg/ml), or rifampicin (0.5 μg/ml or 1 μg/ml).

The structures appear in SMILES notation.

For the compound `O=C(O)c1cn(C2CC2)c2cc(N3CCNCC3)c(F)cc2c1=O` [ciprofloxacin], the mycoplasma contamination result by setting is: (used alone, surfactin 10 or 20 μM, ciprofloxacin 1 or 5 μg/ml, rifampicin 0.5 or 1 μg/ml) “mycoplasma contamination remained”; (used together with amphidinol 3 (AM3) 5 and 10 μg/ml) “completely removed”.
